For test [1], the target named is T1, Tribbles pseudokinase 2 (TRIB2), AcGFP1 fusion in HEK 293 cells (pAcGFP1-TRIB2) (bovine) (UniProt Q5GLH2).
T1 sequence: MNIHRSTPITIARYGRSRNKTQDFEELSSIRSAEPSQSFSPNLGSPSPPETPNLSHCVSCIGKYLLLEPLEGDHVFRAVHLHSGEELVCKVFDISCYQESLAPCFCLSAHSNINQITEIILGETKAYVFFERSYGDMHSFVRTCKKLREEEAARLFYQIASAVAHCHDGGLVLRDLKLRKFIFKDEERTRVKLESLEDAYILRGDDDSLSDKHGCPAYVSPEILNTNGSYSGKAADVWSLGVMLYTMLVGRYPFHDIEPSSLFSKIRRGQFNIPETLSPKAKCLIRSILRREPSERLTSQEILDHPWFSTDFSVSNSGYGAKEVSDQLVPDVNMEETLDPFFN
In words: co-IP; Matchmaker Co-IP system in co-transfected HEK 293 cells (pAcGFP1 bait, ProLabel prey); read-out by ProLabel enzyme complementation, luminescence (RLU); fold induction 60 min after substrate against the experimental control (pAcGFP1-TRIB2 and ProLabel-empty vector).

In test [2] the target is T1, Tribbles pseudokinase 2 (TRIB2), AcGFP1 fusion in HEK 293 cells (pAcGFP1-TRIB2) (bovine). In words: co-IP; co-transfected HEK cells; protein extracts precipitated with anti-AcGFP antibodies, Western blot with anti-INPPL1 or anti-INHBA. For orientation: A western blot detects proteins with antibodies after separation by electrophoresis.

These are yes or no findings as the source states them, for the method shown. In cells and extracts the contact can be indirect. Some binding calls cover weakened binding; strength is not graded here. Where a sequence is shown, tags or fusion partners need not be part of it.

B1: succinate dehydrogenase complex iron sulfur subunit B (SDHB), ProLabel prey in HEK 293 cells (protein, UniProt Q3T189 29-280)
chain: AQTAAAAAPRIKKFAIYRWDPDKTGDKPHMQTYEIDLNNCGPMVLDALIKIKNEIDSTLTFRRSCREGICGSCAMNINGGNTLACTRRIDTNLSKVSKIYPLPHMYVIKDLVPDLSNFYAQYKSIEPYLKKKDESQGGKEQYLQSIEDREKLDGLYECILCACCSTSCPSYWWNGDKYLGPAVLMQAYRWMIDSRDDFTEERLAKLQDPFSLYRCHTIMNCTQTCPKGLNPGKAIAEIKKMMATYKEKQASA
As for B1, the binding entry in test [1] was “binds”.

B2: stearoyl-CoA desaturase (SCD), ProLabel prey in HEK 293 cells (protein, UniProt Q9TT94 1-359)
chain: MPAHLLQEEISSSYTTTTTITAPPSRVLQNGGGKLEKTPLYLEEDIRPEMRDDIYDPTYQDKEGPKPKLEYVWRNIILMSLLHLGALYGITLIPTCKIYTYIWVLFYYLMGALGITAGAHRLWSHRTYKARLPLRVFLIIGNTMAFQNDVFEWSRDHRAHHKFSETDADPHNSRRGFFFSHVGWLLVRKHPAVKEKGSTLNLSDLRAEKLVMFQRRYYKPGVLLLCFILPTLVPWYLWDETFQNSLFFATLFRYALGLNVTWLVNSAAHMYGYRPYDKTINPRENILVSLGAAGEGFHNYHHTFPYDYSASEYRWHINFTTFFIDCMAAIGLAYDRKKVSKAAILARIKRTGEESYKSG
For B2, the binding result in test [1] is given as “binds”.

B3: inositol polyphosphate phosphatase-like 1 (INPPL1), ProLabel prey in HEK 293 cells (natural protein, Bos taurus, UniProt E1BBJ7 1-1264, looked up)
chain: MASACGAPGPGGAGPGAALGSPAPAWYHRDLSRAAAEELLARAGRDGSFLVRDSESVAGAFALCVLYQKHVHTYRILPDGEDFLAVQTSQGVPVRRFQTLGELISLYAQPNQGLVCALLLPVEREREPDPPDDRDASDGEDEKPPLPPRSGSTSISAPMGPSSPPAAPETPTTPAAESAPNGLSTVSHEYLKGSYGLDLEAVRGGASNLPHLTRTLATSCRRLHSEVDKVLSGLEILSKVFDQQSSPMVTRLLQQQNPPQTGEQELESLVLKLSVLKDFLSGIQKKALKALQDMSSTAPPAPLQPSTRKAKTIPVQAFEVKLDVTLGDLTKIGKSQKFTLSVDVEGGRLVLLRRQRDSQEDWTTFTHDRIRQLIKSQRVQNKLGVVFEKEKDRTQRKDFIFVSARKREAFCQLLQLMKNKHSKQDEPDMISIFIGTWNMGSVPPPKNVTSWFTSKGLGKTLDEVTVTIPHDIYVFGTQENSVGDREWLDLLRGGLKELTDLDYRPIAMQSLWNIKVAVLVKPEHENRISHVSTSSVKTGIANTLGNKGAVGVSFMFNGTSFGFVNCHLTSGNEKTARRNQNYLDILRLLTLGDRQLSAFDISLRFTHLFWFGDLNYRLDMDIQEILNYISRKEFEPLLRVDQLNLEREKHKVFLRFSEEEISFPPTYRYERGSRDTYAWHKQKPTGVRTNVPSWCDRILWKSYPETHIICNSYGCTDDIVTSDHSPVFGTFEVGVTSQFISKKGLSKTSDQAYIEFESIEAIVKTASRTKFFIEFYSTCLEEYKKSFENDAQSSDNINFLKVQWSSRQLPTLNPILADIEYLQDQHLLLTVKSMDGYESYGECVVALKSMIGSTAQQFLTFLSHRGEETGNIRGSMKVRVPTERLGTRERLYEWISIDKDEAGAKSKAPSVSRGSQDPRSGSRKPASTEASCPLSKLFEEPEKPPPTGRPPAPPRAAPREEPLTPRLKPEGAPELEGVVAPPPKNSFNNPAYYVLEGVPHQLLPPEPPSPARAPVPPATKNKVAITVPAPQLGRHRPPRAGEGSSSDEDSGGTLPPPDFPPPPLPDSAIFLPPGLDPLPGPVIRGRSGGEARGPPPPKAHPRPPLPPGPSPASTFLGDVASGDDRSCSVLQMAKTLSEVDYAPAGPGRAMLLPGPLELQPPRGLPSDYGRPLSFPPPRIRESIQEDLAEEAPCPQVGRAGGLGEAGMGAWLRAIGLERYEEGLVHNGWDDLEFLSDITEEDLEEAGVQDPAHKRLLLDTLQLSK
notes: Bos taurus inositol polyphosphate phosphatase-like 1; Bands at around 50 kDa and 100 kDa after co-IP, around 160 kDa in extracts not subjected to co-IP; The insert may be the cDNA fragment found in the two-hybrid screen; also called SHIP2; SH2-containing inositol 5'-phosphatase 2; source: HEK 293, transfected, in lysate
For B3, the binding result in test [2] was “binds”.

B4: 5'-nucleotidase ecto (NT5E), ProLabel prey in HEK 293 cells (protein, UniProt Q05927 27-549)
chain: WELTILHTNDVHSRLEQTSEDSSKCVNASRCVGGVARLATKVHQIRRAEPHVLLLDAGDQYQGTIWFTVYKGTEVAHFMNALGYDAMALGNHEFDNGVEGLIDPLLKEVNFPILSANIKAKGPLASKISGLYSPYKILTVGDEVVGIVGYTSKETPFLSNPGTNLVFEDEITALQPEVDKLKTLNVNKIIALGHSGFEVDKLIAQKVKGVDVVVGGHSNTFLYTGNPPSKEVPAGQYPFIVTSDDGRKVPVVQAYAFGKYLGYLKVEFDEKGNVVTSHGNPILLNSSIPEDPNIKADINKWRVKLDNYSTQELGKTIVYLDGTAQSCRFRECNMGNLICDAMINNNLRHPDEMSWNHVSMCILNGGGIRSPIDERNNGTITWENLAAVLPFGGTFDLVQLKGSTLKKAFEHSVHRYGQATGEFLQVGGIHVVYDISRNPGDRVVKLEVLCTQCRVPSYEPLRMDKVYKVILPSFLVSGGDGFQMIKDEKIKHDSGDQDINVVSGYISKMKVLYPAVEGRIQFS
Consider B4, for which, in test [1], the binding result was “binds”.

The record behind these values is publication PMC7913596, “Tribbles Pseudokinase 2 (TRIB2) Regulates Expression of Binding Partners in Bovine Granulosa Cells” (International Journal of Molecular Sciences, 2021).
